Laboratory results published in the supplement of paper PMC10849652.
The list shows a part of the results.

Protein sequences, listed by entry. Tags and fused reporters are not part of them. Lines headed by an entry give the natural chain unless they say otherwise; changes in a name come on top.
UniProt P56747: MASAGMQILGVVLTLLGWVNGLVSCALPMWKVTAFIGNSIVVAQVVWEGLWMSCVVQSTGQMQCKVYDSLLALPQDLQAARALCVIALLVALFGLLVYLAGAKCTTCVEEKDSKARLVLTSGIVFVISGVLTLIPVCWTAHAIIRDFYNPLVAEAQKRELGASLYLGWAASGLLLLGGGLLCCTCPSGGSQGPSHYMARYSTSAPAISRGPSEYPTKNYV
UniProt O75122: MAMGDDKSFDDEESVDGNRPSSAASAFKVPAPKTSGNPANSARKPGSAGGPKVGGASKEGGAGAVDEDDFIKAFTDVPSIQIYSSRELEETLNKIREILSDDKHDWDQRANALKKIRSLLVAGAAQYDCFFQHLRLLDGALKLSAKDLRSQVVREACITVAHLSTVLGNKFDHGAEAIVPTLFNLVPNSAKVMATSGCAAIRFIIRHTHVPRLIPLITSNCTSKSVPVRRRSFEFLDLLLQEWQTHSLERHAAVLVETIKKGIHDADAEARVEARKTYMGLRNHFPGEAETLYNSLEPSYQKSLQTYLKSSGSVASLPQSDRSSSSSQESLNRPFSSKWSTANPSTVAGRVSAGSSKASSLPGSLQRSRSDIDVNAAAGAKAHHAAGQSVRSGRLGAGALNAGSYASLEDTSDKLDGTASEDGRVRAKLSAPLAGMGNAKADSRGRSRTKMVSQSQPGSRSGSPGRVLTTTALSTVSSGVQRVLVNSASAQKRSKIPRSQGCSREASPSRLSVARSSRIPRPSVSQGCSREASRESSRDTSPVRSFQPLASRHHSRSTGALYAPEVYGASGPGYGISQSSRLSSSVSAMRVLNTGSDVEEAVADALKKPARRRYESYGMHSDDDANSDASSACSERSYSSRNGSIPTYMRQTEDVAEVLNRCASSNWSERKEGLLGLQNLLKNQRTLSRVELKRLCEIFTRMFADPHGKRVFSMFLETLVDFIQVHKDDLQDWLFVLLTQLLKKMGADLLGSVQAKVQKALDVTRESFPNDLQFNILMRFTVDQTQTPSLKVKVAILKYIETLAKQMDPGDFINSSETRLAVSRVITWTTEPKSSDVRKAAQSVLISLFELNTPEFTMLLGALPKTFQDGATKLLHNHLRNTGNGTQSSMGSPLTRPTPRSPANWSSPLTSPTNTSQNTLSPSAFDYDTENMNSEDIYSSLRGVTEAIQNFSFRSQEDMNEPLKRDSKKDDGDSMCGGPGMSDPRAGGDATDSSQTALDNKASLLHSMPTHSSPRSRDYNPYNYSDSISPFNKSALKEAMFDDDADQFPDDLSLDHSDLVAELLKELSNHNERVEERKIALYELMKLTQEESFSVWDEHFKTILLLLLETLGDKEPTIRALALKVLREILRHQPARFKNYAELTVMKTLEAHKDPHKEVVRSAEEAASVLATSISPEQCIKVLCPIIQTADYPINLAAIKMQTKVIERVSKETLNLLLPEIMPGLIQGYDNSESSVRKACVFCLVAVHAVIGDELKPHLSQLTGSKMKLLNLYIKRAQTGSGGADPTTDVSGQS
UniProt P51801: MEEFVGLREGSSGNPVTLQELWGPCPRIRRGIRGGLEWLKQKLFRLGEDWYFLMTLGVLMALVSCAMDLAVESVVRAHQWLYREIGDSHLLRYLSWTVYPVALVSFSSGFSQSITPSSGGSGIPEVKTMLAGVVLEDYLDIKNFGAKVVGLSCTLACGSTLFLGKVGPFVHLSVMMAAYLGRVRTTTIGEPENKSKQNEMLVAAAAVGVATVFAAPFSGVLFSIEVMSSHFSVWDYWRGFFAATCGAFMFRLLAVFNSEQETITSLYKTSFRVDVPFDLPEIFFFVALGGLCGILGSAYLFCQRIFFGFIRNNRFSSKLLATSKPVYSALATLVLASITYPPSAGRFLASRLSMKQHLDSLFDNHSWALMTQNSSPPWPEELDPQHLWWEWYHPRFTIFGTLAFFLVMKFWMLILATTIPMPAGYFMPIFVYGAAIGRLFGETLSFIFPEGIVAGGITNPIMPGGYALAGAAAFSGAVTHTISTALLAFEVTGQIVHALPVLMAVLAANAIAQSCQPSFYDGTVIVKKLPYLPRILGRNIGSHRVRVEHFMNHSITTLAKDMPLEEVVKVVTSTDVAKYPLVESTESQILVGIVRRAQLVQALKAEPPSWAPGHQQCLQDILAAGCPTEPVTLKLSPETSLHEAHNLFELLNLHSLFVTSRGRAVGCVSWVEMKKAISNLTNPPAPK
UniProt Q13286: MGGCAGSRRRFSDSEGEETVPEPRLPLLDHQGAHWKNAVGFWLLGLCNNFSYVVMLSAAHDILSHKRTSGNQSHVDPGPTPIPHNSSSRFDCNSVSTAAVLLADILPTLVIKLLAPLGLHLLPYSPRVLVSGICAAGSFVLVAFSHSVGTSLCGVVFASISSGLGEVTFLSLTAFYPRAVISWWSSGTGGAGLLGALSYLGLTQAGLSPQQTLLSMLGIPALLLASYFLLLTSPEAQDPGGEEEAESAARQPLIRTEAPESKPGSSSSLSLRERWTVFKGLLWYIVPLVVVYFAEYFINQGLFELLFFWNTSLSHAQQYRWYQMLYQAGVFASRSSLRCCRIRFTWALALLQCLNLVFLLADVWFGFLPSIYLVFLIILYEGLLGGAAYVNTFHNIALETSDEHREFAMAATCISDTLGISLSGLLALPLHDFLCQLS
UniProt Q92478: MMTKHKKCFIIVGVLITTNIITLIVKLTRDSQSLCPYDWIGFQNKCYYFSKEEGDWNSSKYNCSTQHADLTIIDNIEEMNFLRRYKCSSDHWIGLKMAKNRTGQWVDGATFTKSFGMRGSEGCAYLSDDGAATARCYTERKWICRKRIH
UniProt O95628: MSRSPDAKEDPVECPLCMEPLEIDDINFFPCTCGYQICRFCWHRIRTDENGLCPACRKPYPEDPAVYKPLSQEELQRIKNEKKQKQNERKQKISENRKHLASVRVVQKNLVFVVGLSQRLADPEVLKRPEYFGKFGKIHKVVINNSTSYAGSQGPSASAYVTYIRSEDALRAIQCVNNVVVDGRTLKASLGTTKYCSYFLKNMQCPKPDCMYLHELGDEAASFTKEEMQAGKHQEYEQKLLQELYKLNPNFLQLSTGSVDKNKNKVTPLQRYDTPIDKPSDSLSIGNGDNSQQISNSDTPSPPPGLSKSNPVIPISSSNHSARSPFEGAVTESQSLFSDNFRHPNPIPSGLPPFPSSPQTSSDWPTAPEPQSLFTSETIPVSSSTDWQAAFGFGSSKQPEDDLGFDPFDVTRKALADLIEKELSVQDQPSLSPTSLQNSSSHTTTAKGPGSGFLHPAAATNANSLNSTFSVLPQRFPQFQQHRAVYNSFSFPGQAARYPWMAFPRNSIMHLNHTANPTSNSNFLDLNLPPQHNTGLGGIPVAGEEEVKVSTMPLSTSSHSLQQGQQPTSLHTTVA
UniProt Q8IZR5: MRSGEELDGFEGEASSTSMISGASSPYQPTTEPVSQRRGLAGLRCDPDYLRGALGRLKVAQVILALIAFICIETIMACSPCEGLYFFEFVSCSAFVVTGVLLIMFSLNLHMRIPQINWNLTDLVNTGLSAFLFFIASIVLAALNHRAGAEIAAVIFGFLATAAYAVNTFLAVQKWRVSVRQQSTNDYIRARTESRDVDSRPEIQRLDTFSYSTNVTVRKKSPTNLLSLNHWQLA
UniProt Q92989: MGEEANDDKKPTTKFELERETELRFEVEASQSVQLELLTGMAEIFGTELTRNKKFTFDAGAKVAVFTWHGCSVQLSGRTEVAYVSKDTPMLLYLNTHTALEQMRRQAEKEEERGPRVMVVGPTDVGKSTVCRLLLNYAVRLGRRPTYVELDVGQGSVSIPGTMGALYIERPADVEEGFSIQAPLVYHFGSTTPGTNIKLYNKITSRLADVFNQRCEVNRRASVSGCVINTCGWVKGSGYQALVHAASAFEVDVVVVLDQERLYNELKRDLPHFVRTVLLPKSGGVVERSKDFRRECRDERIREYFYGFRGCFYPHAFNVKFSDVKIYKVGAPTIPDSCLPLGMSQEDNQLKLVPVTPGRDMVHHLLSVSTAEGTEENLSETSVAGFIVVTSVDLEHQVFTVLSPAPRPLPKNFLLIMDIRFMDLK
UniProt Q14011: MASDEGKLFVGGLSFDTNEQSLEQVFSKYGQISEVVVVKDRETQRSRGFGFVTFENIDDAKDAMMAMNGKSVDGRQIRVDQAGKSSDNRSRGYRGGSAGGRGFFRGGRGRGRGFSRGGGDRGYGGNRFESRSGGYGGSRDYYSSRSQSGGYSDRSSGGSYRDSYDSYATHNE

Assays:
Test in all cases: log2 fold change, soluble protein after heating vs DMSO (PISA); higher = thermal stabilisation; K562 cells, 10 uM, 30 min; active = over 0.2 and 3.5 SD of the protein, either way, in both replicates (recomputed)
givinostat = compound: CCN(CC)Cc1ccc2cc(COC(=O)Nc3ccc(C(=O)NO)cc3)ccc2c1 [givinostat]
In short: (§1)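 Values are thermal stability changes relative to control samples and are taken from duplicates. They are stated as log2 fold changes. Before quantification by TMTpro 16plex LC-MS/MS with equalised channel sums, K562 cells at 2×10^6 cells/mL were treated with 10 μM compound for 30 min, heated in aliquots for 3 min across 48°C-58°C, pooled, extracted in PBS with 0.5% NP-40 at 4°C, and centrifuged at 21,000xg for 90 min to give the soluble supernatant.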

[1] = compound: CCn1c(C(=O)N(C2CC2)C2CC2)cc2c3c(ncn3C)c(Nc3cc(C)n(C)n3)nc21
In short: as §1

[2] = compound: CCn1cc(-c2ccnc3[nH]c(-c4cccc(CN(C)C)c4)cc23)c(-c2ccc(NC(=O)N(C)C)cc2)n1
In short: as §1

[3] = compound: CN1C2=C(C3=C1C(=O)N(N=C3)CC4=CC(=CC=C4)N)SC(=C2)S(=O)C
In short: as §1

[4] = compound: CN1CCC(CNc2ccc3ncc(-c4cccc(OC(F)(F)F)c4)n3n2)CC1
In short: as §1

[5] = compound: CC1=C(C=C(C=C1)NC(=O)C2=CC(=CC=C2)N(C)C)NC(=O)C3=CC=C(C=C3)O
In short: as §1

[6] = compound: CC1=CC=C(C=C1)SC2=C3C=C(SC3=CN=C2)C(=O)N
In short: as §1

[7] = compound: CC1=NC(=CC=C1)C2=C(N=C(N2)C(C)(C)C)C3=CC4=NC=CN=C4C=C3
In short: as §1

[8] = compound: CCCS(=O)(=O)Nc1ccc(F)c(C(=O)c2c[nH]c3ncc(Cl)cc23)c1F
In short: as §1

[9] = compound: CCCc1cc(C)[nH]c(=O)c1CNC(=O)c1cc(-c2ccnc(N3CCN(C)CC3)c2)cc2c1cnn2C(C)C
In short: as §1

barasertib = compound: CCN(CCCOc1ccc2c(Nc3cc(CC(=O)Nc4cccc(F)c4)[nH]n3)ncnc2c1)CCOP(=O)(O)O [barasertib]
In short: as §1

[10] = compound: CC[C@@H]1C(=O)N(C)c2cnc(Nc3ccc(C(=O)NC4CCN(C)CC4)cc3OC)nc2N1C1CCCC1
In short: as §1

volasertib = compound: CC[C@@H]1C(=O)N(C)c2cnc(Nc3ccc(C(=O)N[C@H]4CC[C@H](N5CCN(CC6CC6)CC5)CC4)cc3OC)nc2N1C(C)C [volasertib]
In short: as §1

[11] = compound: CC[C@H](C)N1C=C(C2=C(C=C(C=C21)C3=CN=C(C=C3)N4CCNCC4)C(=O)NCC5=C(C=C(NC5=O)C)C)C
In short: as §1

Nexturastat A = compound: CCCCN(Cc1ccc(C(=O)NO)cc1)C(=O)Nc1ccccc1 [Nexturastat A]
In short: as §1

vemurafenib = compound: CCCS(=O)(=O)Nc1ccc(F)c(C(=O)c2c[nH]c3ncc(-c4ccc(Cl)cc4)cc23)c1F [vemurafenib]
In short: as §1

epoxomicin = compound: CC[C@H](C)[C@@H](C(=O)N[C@@H]([C@@H](C)O)C(=O)N[C@@H](CC(C)C)C(=O)[C@]1(CO1)C)NC(=O)[C@H]([C@@H](C)CC)N(C)C(=O)C [epoxomicin]
In short: as §1

[12] = compound: CN(C)CC(=O)Nc1ccc2[nH]c(=O)c3ccccc3c2c1
In short: as §1

[13] = compound: CC1=C(C=C(C=C1)NC(=O)C2=CC(=CC=C2)C(C)(C)C#N)NC3=CC4=C(C=C3)N=CN(C4=O)C
In short: as §1

rosiglitazone = compound: CN(CCOC1=CC=C(C=C1)C[C@H]2C(=O)NC(=O)S2)C3=CC=CC=N3 (racemic) [rosiglitazone]
In short: as §1

Measured: log2 fold change

CLDN6 (UniProt P56747)
inactive: givinostat 0.169 | [1] 0.01 | [2] -0.45 | [3] 0.189 | [4] -0.042

CLASP2 (UniProt O75122)
inactive: [5] -0.286 | [6] -0.103 | [7] 0.065 | [8] -0.068 | [9] -0.017 | givinostat 0.031 | barasertib 0.031 | [10] -0.104 | volasertib -0.123 | [11] 0.083

CLCNKB (UniProt P51801)
inactive: [6] -0.058 | [7] -0.016 | Nexturastat A -0.245 | vemurafenib 0.294 | [8] -0.122 | givinostat 0.028 | volasertib 0.174 | [11] 0.052 | epoxomicin 0.171 | [1] 0.086 | [2] -0.003 | [12] 0.194 | [3] -0.071 | [4] 0.099

CLN3 (UniProt Q13286)
inactive: [5] 0.004 | [6] -0.025 | [7] -0.093 | Nexturastat A -0.039 | vemurafenib 0.147 | [8] -0.119 | [9] -0.09 | givinostat 0.02 | barasertib -0.027 | [10] -0.003 | volasertib 0.055 | [11] -0.038 | epoxomicin 0.09 | [12] -0.001 | [3] 0.074

CLEC2B (UniProt Q92478)
inactive: [6] 0.223 | [8] 0.042 | volasertib -0.385

CNOT4 isoform 9 (UniProt O95628)
inactive: [5] -0.034 | [6] 0.003 | [7] 0.017 | vemurafenib -0.059 | [8] 0.006 | [9] -0.171 | givinostat 0.053 | barasertib 0.015 | [10] 0.198 | volasertib -0.006 | [11] -0.046 | [2] -0.095 | [12] 0.046 | [3] -0.105 | [4] 0.072

CIP2A (UniProt Q8TCG1)
inactive: [13] -1.29 | Nexturastat A 0.618 | [9] 0.058 | epoxomicin -0.334 | [2] -0.173 | [3] -0.007 | [4] -0.344

CMTM4 (UniProt Q8IZR5)
inactive: [13] -0.024 | Nexturastat A 0.029 | vemurafenib -0.112 | [9] 0.069 | barasertib 0.078 | [10] 0.212 | [11] 0.084 | epoxomicin -0.002 | [12] -0.043 | rosiglitazone -0.037

CLP1 (UniProt Q92989)
inactive: [13] -0.074 | [9] 0.027 | givinostat 0.134 | barasertib 0.038 | [10] -0.071 | [1] -0.203 | rosiglitazone 0.028

CIRBP (UniProt Q14011)
inactive: [6] -0.115 | Nexturastat A 0.01 | vemurafenib 0.053 | [8] 0.048 | [9] -0.031 | barasertib -0.245 | [10] 0.239 | volasertib 0.084 | [11] -0.021 | epoxomicin -0.501 | [2] 0.106 | [12] -0.34 | rosiglitazone -0.132 | [3] 0.093 | [4] 0.206
